Results are given in words; binding and its absence hold for the method and conditions named. In cells and extracts the contact can be indirect. Some binding calls cover weakened binding; strength is not graded here.

Chains of the proteins cited; added tags and fusions are not shown.
UniProt P35222: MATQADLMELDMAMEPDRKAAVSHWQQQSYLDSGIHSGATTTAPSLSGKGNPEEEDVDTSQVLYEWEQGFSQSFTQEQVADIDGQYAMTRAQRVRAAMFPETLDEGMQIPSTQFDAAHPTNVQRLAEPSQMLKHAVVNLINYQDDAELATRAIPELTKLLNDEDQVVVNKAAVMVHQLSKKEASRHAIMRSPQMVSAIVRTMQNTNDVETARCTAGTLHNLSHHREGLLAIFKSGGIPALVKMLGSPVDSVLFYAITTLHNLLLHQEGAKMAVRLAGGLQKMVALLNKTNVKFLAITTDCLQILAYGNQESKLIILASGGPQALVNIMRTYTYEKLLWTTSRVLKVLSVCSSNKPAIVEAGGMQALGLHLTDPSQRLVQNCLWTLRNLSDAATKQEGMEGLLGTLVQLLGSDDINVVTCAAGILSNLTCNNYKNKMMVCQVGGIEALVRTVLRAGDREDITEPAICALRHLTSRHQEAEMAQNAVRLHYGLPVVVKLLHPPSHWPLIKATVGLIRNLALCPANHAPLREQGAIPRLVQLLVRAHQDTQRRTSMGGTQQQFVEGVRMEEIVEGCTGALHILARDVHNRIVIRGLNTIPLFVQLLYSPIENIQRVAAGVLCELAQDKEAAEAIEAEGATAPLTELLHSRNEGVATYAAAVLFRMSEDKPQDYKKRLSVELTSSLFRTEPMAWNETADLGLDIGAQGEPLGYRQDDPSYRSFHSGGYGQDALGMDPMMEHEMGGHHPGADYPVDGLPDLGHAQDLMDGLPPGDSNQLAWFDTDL
UniProt O14901: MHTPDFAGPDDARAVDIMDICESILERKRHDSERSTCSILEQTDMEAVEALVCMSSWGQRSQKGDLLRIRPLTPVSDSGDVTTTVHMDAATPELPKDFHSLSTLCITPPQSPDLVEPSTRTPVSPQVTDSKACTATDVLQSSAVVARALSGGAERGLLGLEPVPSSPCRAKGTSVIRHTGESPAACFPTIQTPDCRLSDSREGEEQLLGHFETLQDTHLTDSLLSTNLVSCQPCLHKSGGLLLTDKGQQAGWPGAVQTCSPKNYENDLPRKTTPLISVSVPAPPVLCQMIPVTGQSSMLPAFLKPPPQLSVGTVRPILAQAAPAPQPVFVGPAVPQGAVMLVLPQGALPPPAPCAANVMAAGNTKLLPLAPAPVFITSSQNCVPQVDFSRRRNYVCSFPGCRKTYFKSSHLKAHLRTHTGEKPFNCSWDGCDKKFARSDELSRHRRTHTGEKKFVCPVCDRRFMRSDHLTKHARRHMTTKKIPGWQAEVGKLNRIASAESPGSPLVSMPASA
UniProt Q03164: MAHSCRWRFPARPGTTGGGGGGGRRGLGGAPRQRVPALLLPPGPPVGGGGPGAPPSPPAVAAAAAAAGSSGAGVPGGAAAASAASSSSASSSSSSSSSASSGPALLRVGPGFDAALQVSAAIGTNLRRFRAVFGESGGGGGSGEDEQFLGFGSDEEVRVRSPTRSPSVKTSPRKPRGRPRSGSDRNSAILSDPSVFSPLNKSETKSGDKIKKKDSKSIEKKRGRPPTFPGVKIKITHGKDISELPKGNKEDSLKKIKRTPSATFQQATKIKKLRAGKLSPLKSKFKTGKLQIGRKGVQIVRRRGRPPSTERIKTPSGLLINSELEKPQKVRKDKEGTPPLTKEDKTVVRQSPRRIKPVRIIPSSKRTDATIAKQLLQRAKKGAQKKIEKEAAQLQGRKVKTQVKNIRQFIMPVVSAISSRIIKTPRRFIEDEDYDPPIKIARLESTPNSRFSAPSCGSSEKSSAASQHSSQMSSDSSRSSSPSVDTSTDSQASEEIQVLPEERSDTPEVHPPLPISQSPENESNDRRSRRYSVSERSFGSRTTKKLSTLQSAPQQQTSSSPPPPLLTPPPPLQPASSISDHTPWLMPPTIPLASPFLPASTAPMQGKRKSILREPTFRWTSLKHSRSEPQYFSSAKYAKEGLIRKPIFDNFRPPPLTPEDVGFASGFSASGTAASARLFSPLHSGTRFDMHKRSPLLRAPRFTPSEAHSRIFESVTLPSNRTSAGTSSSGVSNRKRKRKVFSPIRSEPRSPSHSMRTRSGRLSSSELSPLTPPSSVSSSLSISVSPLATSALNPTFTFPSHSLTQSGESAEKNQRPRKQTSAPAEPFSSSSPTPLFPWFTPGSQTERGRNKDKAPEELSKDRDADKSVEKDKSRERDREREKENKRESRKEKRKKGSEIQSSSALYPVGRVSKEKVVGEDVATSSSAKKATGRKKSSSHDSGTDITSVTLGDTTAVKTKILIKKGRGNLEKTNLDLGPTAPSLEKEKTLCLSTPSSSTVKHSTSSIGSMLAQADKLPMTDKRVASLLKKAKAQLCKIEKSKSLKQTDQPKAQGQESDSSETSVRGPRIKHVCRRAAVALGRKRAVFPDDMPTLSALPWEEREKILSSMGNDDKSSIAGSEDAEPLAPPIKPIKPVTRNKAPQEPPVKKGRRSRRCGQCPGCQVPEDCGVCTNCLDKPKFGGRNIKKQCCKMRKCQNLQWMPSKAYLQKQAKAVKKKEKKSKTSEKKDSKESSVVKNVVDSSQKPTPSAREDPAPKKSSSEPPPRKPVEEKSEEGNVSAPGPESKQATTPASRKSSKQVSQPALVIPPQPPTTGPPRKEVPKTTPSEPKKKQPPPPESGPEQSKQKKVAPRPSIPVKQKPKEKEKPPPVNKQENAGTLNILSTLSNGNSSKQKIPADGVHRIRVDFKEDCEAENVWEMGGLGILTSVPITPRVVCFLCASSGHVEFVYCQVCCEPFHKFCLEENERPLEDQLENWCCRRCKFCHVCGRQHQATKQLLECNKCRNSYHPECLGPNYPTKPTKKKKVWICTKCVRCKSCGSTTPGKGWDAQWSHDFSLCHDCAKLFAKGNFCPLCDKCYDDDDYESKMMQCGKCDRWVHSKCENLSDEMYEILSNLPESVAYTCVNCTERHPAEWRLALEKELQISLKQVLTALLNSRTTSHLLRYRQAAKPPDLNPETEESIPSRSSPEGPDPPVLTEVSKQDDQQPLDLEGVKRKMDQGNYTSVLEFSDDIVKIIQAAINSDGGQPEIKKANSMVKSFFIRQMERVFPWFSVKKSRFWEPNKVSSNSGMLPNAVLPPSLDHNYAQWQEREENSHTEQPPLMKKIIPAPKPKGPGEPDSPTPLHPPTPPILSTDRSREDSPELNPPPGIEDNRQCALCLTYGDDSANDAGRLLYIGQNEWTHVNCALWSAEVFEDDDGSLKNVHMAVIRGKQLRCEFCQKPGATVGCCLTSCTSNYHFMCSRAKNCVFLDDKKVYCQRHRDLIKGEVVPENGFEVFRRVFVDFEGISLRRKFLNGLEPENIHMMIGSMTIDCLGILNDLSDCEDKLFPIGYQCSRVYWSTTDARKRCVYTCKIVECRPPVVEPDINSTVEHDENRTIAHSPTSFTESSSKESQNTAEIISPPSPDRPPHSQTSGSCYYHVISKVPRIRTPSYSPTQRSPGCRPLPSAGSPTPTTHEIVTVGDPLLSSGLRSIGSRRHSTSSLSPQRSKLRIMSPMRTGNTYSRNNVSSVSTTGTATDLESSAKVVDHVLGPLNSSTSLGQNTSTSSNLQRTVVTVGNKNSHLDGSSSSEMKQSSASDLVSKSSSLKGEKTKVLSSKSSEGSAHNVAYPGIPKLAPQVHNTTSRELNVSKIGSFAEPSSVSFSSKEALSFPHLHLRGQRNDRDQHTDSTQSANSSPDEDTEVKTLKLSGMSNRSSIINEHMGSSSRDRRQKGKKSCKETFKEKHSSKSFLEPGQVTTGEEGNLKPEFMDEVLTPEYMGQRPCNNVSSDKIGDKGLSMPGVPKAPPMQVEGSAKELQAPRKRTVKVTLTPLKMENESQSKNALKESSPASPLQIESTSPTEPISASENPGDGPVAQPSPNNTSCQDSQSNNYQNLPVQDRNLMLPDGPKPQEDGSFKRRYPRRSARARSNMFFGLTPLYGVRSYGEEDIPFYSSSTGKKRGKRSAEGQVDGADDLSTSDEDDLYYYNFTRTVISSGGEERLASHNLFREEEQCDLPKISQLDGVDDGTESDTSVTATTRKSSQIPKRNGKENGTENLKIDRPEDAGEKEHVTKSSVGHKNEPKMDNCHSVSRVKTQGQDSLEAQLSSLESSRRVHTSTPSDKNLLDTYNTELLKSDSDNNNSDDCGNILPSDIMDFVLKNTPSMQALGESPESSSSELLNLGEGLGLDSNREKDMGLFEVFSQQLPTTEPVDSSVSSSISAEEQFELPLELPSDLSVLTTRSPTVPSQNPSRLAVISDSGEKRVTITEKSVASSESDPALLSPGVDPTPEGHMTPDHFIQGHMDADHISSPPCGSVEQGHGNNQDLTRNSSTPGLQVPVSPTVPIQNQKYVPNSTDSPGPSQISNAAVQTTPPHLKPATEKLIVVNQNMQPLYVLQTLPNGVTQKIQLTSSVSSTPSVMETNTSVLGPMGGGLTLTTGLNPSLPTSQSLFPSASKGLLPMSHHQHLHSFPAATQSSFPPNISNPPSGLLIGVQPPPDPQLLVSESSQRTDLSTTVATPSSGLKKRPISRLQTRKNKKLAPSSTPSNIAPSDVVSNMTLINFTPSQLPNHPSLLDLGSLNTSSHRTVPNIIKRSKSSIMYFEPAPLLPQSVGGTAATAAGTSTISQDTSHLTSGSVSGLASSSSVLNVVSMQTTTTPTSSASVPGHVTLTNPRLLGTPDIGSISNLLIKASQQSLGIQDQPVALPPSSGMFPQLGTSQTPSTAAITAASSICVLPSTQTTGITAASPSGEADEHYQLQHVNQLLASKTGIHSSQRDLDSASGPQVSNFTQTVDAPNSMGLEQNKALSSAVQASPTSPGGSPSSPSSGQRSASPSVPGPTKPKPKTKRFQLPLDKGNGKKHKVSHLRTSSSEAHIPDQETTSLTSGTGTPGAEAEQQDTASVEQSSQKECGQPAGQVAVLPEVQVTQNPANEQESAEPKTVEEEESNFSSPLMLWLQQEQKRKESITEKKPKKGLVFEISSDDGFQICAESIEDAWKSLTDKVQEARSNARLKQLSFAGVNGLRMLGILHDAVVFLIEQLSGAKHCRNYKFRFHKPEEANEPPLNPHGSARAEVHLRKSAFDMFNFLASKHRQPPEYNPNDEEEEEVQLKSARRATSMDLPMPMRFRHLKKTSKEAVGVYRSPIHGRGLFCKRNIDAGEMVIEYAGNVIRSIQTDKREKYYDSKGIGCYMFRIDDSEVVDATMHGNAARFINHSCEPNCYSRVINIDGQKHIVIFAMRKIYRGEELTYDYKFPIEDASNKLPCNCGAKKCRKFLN

This experiment addresses β-catenin (human (endogenous in BGC-823)) (UniProt P35222). The experiment is described as follows: co-IP; immunoprecipitation from BGC-823 cells with anti-β-catenin antibody, western blot with anti-KLF11 or anti-KMT2A antibodies. In general terms: A western blot detects proteins with antibodies after separation by electrophoresis.

Regarding “KLF Transcription Factor 11 (from UniProt O14901 1-512)”, the binding result is recorded as “binds”.
The same measure for “KMT2A (from UniProt Q03164 1-3969) (enzyme)”: “binds”.
